Results taken from paper PMC7851237, “Production, purification, and radiolabeling of the ^203Pb/^212Pb theranostic pair” (EJNMMI Radiopharmacy and Chemistry, 2021).

Key:
[1] = ^203Pb radiolabeling studies (radio-iTLC); settings: room temperature, pH 7, 1 h, n = 3
[2] = ^212Pb radiolabeling studies (radio-iTLC); settings: room temperature, pH 7, 1 h, n = 3

Row | SMILES | ^203Pb radiochemical yield (RCY) ([1]; chelator 10^-4 M) [%] | ^203Pb radiochemical yield (RCY) ([1]; chelator 10^-5 M) [%] | ^203Pb radiochemical yield (RCY) ([1]; chelator 10^-6 M) [%] | ^203Pb radiochemical yield (RCY) ([1]; chelator 10^-7 M) [%] | ^212Pb radiochemical yield (RCY) ([2]; chelator 10^-4 M) [%] | ^212Pb radiochemical yield (RCY) ([2]; chelator 10^-5 M) [%] | ^212Pb radiochemical yield (RCY) ([2]; chelator 10^-6 M) [%] | ^212Pb radiochemical yield (RCY) ([2]; chelator 10^-7 M) [%]
1 | O=C(O)CN1CCN(CC(=O)O)CCN(CC(=O)O)CCN(CC(=O)O)CC1 [DOTA, 1,4,7,10-tetraazacyclododecane-1,4,7,10-tetraacetic acid, reference compound] | 96.1 ± 1.0 | 75.8 ± 9.4 | 3.0 ± 0.8 | 1.5 ± 0.2 | 97.6 ± 0.1 | 96.5 ± 0.8 | 4.3 ± 1.2 | 3.6 ± 0.5
2 | O=C(O)CN1CCN(CC(=O)O)CCN(Cc2ccccn2)CCN(CC(=O)O)CC1 [DOTA-1Py, 2,2′,2″-(10-(pyridin-2-ylmethyl)-1,4,7,10-tetraazacyclododecane-1,4,7-triyl) triacetic acid] | 97.0 ± 0.3 | 80.6 ± 6.6 | 7.7 ± 5.0 | 1.1 ± 0.2 | 97.0 ± 0.9 | 96.8 ± 0.6 | 13.0 ± 3.1 | 4.6 ± 1.1
3 | O=C(O)CN1CCN(CC(=O)O)CCN(Cc2ccccn2)CCN(Cc2ccccn2)CC1 [DOTA-2Py, 2,2′-(7,10-bis (pyridin-2-ylmethyl)-1,4,7,10-tetraazacyclododecane-1,4-diyl) diacetic acid] | 97.6 ± 0.3 | 87.6 ± 0.3 | 1.7 ± 0.6 | 1.2 ± 0.3 | 96.9 ± 0.8 | 97.4 ± 0.6 | 5.0 ± 0.4 | 3.7 ± 0.8
4 | O=C(O)CN1CCN(Cc2ccccn2)CCN(Cc2ccccn2)CCN(Cc2ccccn2)CC1 [DOTA-3Py, 2-(4,7,10-tris (pyridin-2-ylmethyl)-1,4,7,10-tetraazacyclododecan-1-yl) acetic acid] | 97.7 ± 0.5 | 80.6 ± 6.6 | 27.2 ± 1.56 | 1.7 ± 0.1 | 97.6 ± 0.7 | 97.0 ± 0.1 | 26.9 ± 3.6 | –
5 | NC(=O)CN1CCN(CC(N)=O)CCN(CC(N)=O)[C@@H](Cc2ccc(N=C=S)cc2)CN(CC(N)=O)CC1 [p-SCN-Bn-TCMC, reference compound] | 97.2 ± 0.6 | 96.9 ± 0.6 | 43.7 ± 1.0 | 3.7 ± 0.4 | 97.8 ± 0.4 | 98.1 ± 0.5 | 80.8 ± 8.9 | 13.9 ± 1.6
